Reference: PubChem BioAssay AID540256 (National Center for Advancing Translational Sciences (NCATS), 2011)
About 3,700 (1.2%) of roughly 300,000 compounds were called active. Inconclusive means that the source gave no clear call. Such entries were picked first, then a sample of the others. The call rests on the fitted dose curve; tested in HEK293 cells. Potencies of inconclusive entries are doubtful fits and often do not repeat.

Assay: qHTS for Inhibitors of binding or entry into cells for Lassa Virus; further: nearly all actives have a fitted effect of over 50% in size
Details: Lassa virus pseudotype entry inhibition, cell reporter; activity change, negative = inhibition: at 37.9 µM (top of the series) unless noted
On the % scale 0 is the no-effect control and ±100 the full control effect; potency means the concentration at half of the fitted maximal effect.

| Structure (SMILES) | Potency | activity change, negative = inhibition |
| --- | --- | --- |
| Cc1ccc2nc(-c3ccc(NC(=O)c4cccnc4)cc3)oc2c1 | inconclusive: 29.1 µM [inhibitor, single point] |  |
| CCCCNC(=O)c1cnn2c(C)c(Cc3c(F)cccc3Cl)c(C)nc12 |  | inactive: 4.2% [at 46.1 µM] |
| COc1ccc(-c2cc(C(=O)N3CCN(c4ccccn4)CC3)c3ccccc3n2)cc1 | inconclusive: 16.4 µM [inhibitor, single point] |  |
| C=CCN(c1ccccc1OC)S(=O)(=O)c1ccc(Cl)c(C(=O)Nc2ccc(N3CCOCC3)cc2)c1 | inconclusive: 4.47 µM [inhibitor, single point] |  |
| Cn1cnc2nc(Cl)nc(Cl)c21 | inconclusive: 11.2 µM [inhibitor, partial curve, poor fit] |  |
| COc1ccc(C(C(=O)NC2CCCCC2)N(C(=O)Cc2c[nH]c3ccccc23)c2ccc(NC(C)=O)cc2)cc1OC (stereo not given) |  | inactive: -35.3% |
| Cc1ccccc1NC(=O)CN1C(=O)C(C)(C)c2ccccc21 | inconclusive: 3.16 µM [inhibitor, single point] |  |
| COc1cccc(NC(=O)c2cccn(Cc3ccccc3C)c2=O)c1 | inconclusive: 7.08 µM [inhibitor, full curve, poor fit] |  |
| Cc1cccc(-c2nc3c(c(SCC(N)=O)n2)CCCC3)c1 |  | inactive: 1.75% |
| COc1ccc(Cl)cc1NC(=O)CN(C)C(=O)c1ccc2c(c1)CC(c1ccccc1)OC2=O (stereo not given) | inconclusive: 11.2 µM [inhibitor, partial curve, poor fit] |  |
| O=C(COC(=O)c1c2c(nc3ccccc13)CCCC2)Nc1ccc2c(c1)OCO2 | inconclusive: 35.5 µM [inhibitor, single point] |  |
| Cc1ccc(CNC(=O)c2nnn(CC(=O)Nc3cccc(C)c3C)c2N)cc1 |  | inactive: -1.44% [at 46.1 µM] |
| O=C(O)c1ccccc1S(=O)(=O)Cc1ccccc1 |  | inactive: 8.13% |
| CNC(=O)NC(=O)COC(=O)c1ccccc1OCc1ccccc1 | inconclusive: 35.5 µM [inhibitor, single point] |  |
| Cc1cccc(C(=O)NNC(=S)NC(=O)c2cccs2)c1 | inconclusive: 35.5 µM [inhibitor, single point] |  |
| CC(=O)N(C)c1ccc(N=Nc2c(C)[nH]n(C(N)=S)c2=O)cc1 | inconclusive: 29.1 µM [inhibitor, partial curve, poor fit] |  |
| Cc1ccc(N(CC(=O)Nc2cc(Cl)ccc2Oc2ccccc2)S(C)(=O)=O)c(C)c1 | inconclusive: 22.4 µM [inhibitor, single point] |  |
| CC1(C)CC(NC(=O)CSc2ccccc2)CC(C)(C)N1 | inconclusive: 22.4 µM [activator, single point] |  |
| Cc1ccc(N2CC(C)Cn3c2nc2c3c(=O)n(CC(=O)OCc3ccccc3)c(=O)n2C)cc1C (stereo not given) | inconclusive: 8.2 µM [inhibitor, single point] |  |
| COc1ccc(C/C(N)=N/OC(=O)C(c2ccccc2)c2ccccc2)cc1OC | inconclusive: 20.6 µM [inhibitor, partial curve, poor fit] |  |
| COCCn1c(SCC(=O)c2c(-c3ccccc3)n(C)c3ccccc23)nnc1-c1ccncc1 |  | inactive: -4.62% |
| Cc1cc(NS(=O)(=O)c2ccc(C(C)C)cc2)no1 | inconclusive: 28.2 µM [activator, single point] |  |

| Structure (SMILES) | Potency | activity change, negative = inhibition |
| --- | --- | --- |
| COc1ccc(OC2CCN(S(=O)(=O)c3ccc(F)cc3)CC2)cc1 | inconclusive: 22.4 µM [inhibitor, partial curve, poor fit] |  |
| CCOC(=O)c1nnn(CC(=O)N2N=C(c3cc(C)ccc3C)CC2c2ccc(OC)cc2)c1C(=O)OCC (stereo not given) | inconclusive: 29.1 µM [inhibitor, single point] |  |
| O=C(CN1CCN(C(c2ccccc2)c2ccccc2)CC1)N1N=CCC1c1ccccc1 (stereo not given) | inconclusive: 7.08 µM [inhibitor, full curve] |  |
| CCCCC(C(=O)NC(C)(C)C)N(Cc1ccccc1Cl)C(=O)c1snc(C(N)=O)c1N (stereo not given) | inconclusive: 15.8 µM [inhibitor, single point] |  |
| Cc1ccc(CONC(=O)c2ccccc2)cc1 | inconclusive: 35.5 µM [inhibitor, single point] |  |
| CSc1c(-c2ccccn2)c(N)nn1C(=O)C1CCC1 | inconclusive: 35.5 µM [activator, partial curve, poor fit] |  |
| CC1([N+](=O)[O-])COC(C=Cc2ccccc2)OC1 (stereo not given) | inconclusive: 5.62 µM [inhibitor, partial curve, poor fit] |  |
| COc1cc(NC(=O)CC2C(=O)N(c3cccc(C)c3)C(=O)N2Cc2cccs2)cc(OC)c1 (stereo not given) |  | inactive: -28.1% [at 46.1 µM] |
| CCC(c1nnc(SCC(=O)NC2CCCCC2)n1Cc1ccccc1)N(C)C (stereo not given) | inconclusive: 0.501 µM [inhibitor, full curve, poor fit] |  |
| Cc1c(/C=N/NC(=O)c2ccccc2O)c2ccccn2c1C(=O)c1ccc(F)cc1 | inconclusive: 6.31 µM [inhibitor, full curve] |  |
| CCOc1ccc2[nH]c(S(=O)(=O)CC)nc2c1Cl | inconclusive: 7.08 µM [activator, full curve] |  |
| O=C(CCc1ccccc1)Nc1ccccc1F | inconclusive: 22.4 µM [inhibitor, single point] |  |
| O=[N+]([O-])c1ccc(NC(=S)N2CCOCC2)cc1 | inconclusive: 18.4 µM [activator, partial curve, poor fit] |  |
| Cc1cc(Br)ccc1NC(=O)CCSc1ccccc1 |  | inactive: 10.4% |
| COC(=O)C1=C(C)N(Cc2ccccc2)C(=S)NC1c1ccc(Br)cc1 (stereo not given) | inconclusive: 0.944 µM [inhibitor, single point] |  |
| CCOc1ccc(NC(=O)CN2CCN(C3c4ccccc4-c4ccccc43)CC2)cc1 | inconclusive: 32.6 µM [inhibitor, single point] |  |
| CCC(C)n1c(O)c(C=NC(C)c2ccccc2)c(=O)[nH]c1=S (stereo not given) | inconclusive: 17.8 µM [inhibitor, single point] |  |
| C=CC[C@H]1C(=O)N2[C@@H](C[C@@H](C)[C@@H]2c2ccccc2)[C@@H](CC=C)C(=O)N2[C@H]1C[C@@H](C)[C@@H]2c1ccccc1 | inconclusive: 5.96 µM [activator, single point] |  |
| COc1cccc(C(=O)Nc2ccc(C(=O)O)cc2)c1 | inconclusive: 0.231 µM [activator, single point] |  |
| Cc1ccc(C)c(CN2C(=O)c3ccccc3S(=O)c3ccc(C(=O)NCCC4=CCCCC4)cc32)c1 (stereo not given) | inconclusive: 3.55 µM [inhibitor, partial curve, poor fit] |  |
| Cc1ccc(Oc2cc(NC(=O)CCCn3nc([N+](=O)[O-])c(Cl)c3C)cc([N+](=O)[O-])c2)cc1 | inconclusive: 1.26 µM [activator, single point] |  |
| COc1ccc(CCNc2oc(COc3ccccc3F)nc2C#N)cc1OC | inconclusive: 11.2 µM [inhibitor, single point] |  |

Some of these compounds in order of molar mass, largest number first:

| Structure (SMILES) | Potency | activity change, negative = inhibition |
| --- | --- | --- |
| CCOC(=O)c1nnn(CC(=O)N2N=C(c3cc(C)ccc3C)CC2c2ccc(OC)cc2)c1C(=O)OCC (stereo not given) | inconclusive: 29.1 µM [inhibitor, single point] |  |
| Cc1ccc(N2CC(C)Cn3c2nc2c3c(=O)n(CC(=O)OCc3ccccc3)c(=O)n2C)cc1C (stereo not given) | inconclusive: 8.2 µM [inhibitor, single point] |  |
| COCCn1c(SCC(=O)c2c(-c3ccccc3)n(C)c3ccccc23)nnc1-c1ccncc1 |  | inactive: -4.62% |
| CCCCC(C(=O)NC(C)(C)C)N(Cc1ccccc1Cl)C(=O)c1snc(C(N)=O)c1N (stereo not given) | inconclusive: 15.8 µM [inhibitor, single point] |  |
| COc1ccc(Cl)cc1NC(=O)CN(C)C(=O)c1ccc2c(c1)CC(c1ccccc1)OC2=O (stereo not given) | inconclusive: 11.2 µM [inhibitor, partial curve, poor fit] |  |
| COC(=O)C1=C(C)N(Cc2ccccc2)C(=S)NC1c1ccc(Br)cc1 (stereo not given) | inconclusive: 0.944 µM [inhibitor, single point] |  |
| Cc1c(/C=N/NC(=O)c2ccccc2O)c2ccccn2c1C(=O)c1ccc(F)cc1 | inconclusive: 6.31 µM [inhibitor, full curve] |  |
| O=C(COC(=O)c1c2c(nc3ccccc13)CCCC2)Nc1ccc2c(c1)OCO2 | inconclusive: 35.5 µM [inhibitor, single point] |  |
| Cc1ccc(CNC(=O)c2nnn(CC(=O)Nc3cccc(C)c3C)c2N)cc1 |  | inactive: -1.44% [at 46.1 µM] |
| O=C(O)c1ccccc1S(=O)(=O)Cc1ccccc1 |  | inactive: 8.13% |
| O=[N+]([O-])c1ccc(NC(=S)N2CCOCC2)cc1 | inconclusive: 18.4 µM [activator, partial curve, poor fit] |  |
| Cn1cnc2nc(Cl)nc(Cl)c21 | inconclusive: 11.2 µM [inhibitor, partial curve, poor fit] |  |

Following part

| Structure (SMILES) | Potency | activity change, negative = inhibition |
| --- | --- | --- |
| Clc1ccc(-c2csc(N3CCC(c4ccccc4)C3)n2)cc1 (stereo not given) | inconclusive: 23.1 µM [inhibitor, single point] |  |
| O=C1CSC(c2ccncc2)N1Cc1ccco1 (stereo not given) |  | inactive: 9.91% |
| CCOc1ccc2c(c1)c(=O)c(S(=O)(=O)c1ccc(Cl)cc1)cn2Cc1ccccc1C | inconclusive: 3.16 µM [inhibitor, single point] |  |
| COc1ccccc1Nc1nc(-c2ccccc2O)nc2ccccc12 |  | inactive: 7.7% [at 46.1 µM] |
| CC(=O)c1ccc(N=Nc2ccc(C)cc2)cc1 | inconclusive: 22.4 µM [inhibitor, single point] |  |
| Cc1ccc(C)c(S(=O)(=O)N2CCCCC2CCNC(=O)C(=O)NC2CCCC2)c1 (stereo not given) |  | inactive: -15.3% |
| CC(=O)Nc1ccc(S(=O)(=O)NCCS(=O)(=O)N2CCN(c3ccccc3F)CC2)cc1 | inconclusive: 15.8 µM [inhibitor, partial curve, poor fit] |  |
| Cc1ccc2c(CC(=O)NCc3cccs3)coc2c1 | inconclusive: 35.5 µM [inhibitor, single point] |  |
| CC(C)[C@H](NC(=O)OCc1ccccc1)C(=O)OCC(=O)NCCc1ccccc1 | inconclusive: 6.31 µM [inhibitor, single point] |  |
| O=C(CCc1ccc(O)cc1)NNC(=S)NCCc1ccccc1 | inconclusive: 2.82 µM [inhibitor, partial curve, poor fit] |  |
| O=C(CNc1ccc(Cl)cc1)NNC(=S)NCc1ccccc1 | inconclusive: 10 µM [inhibitor, partial curve, poor fit] |  |
| COc1cccc(-c2nn(-c3ccccc3)cc2CNC(C)Cn2cncn2)c1 (stereo not given) |  | inactive: -27.6% |
| CCCS(=O)(=O)N1CCN(S(=O)(=O)c2ccccc2[N+](=O)[O-])CC1 | inconclusive: 6.31 µM [inhibitor, single point] |  |
| O=C(NCCc1ccc(F)cc1)c1cc(=O)c2ccccc2o1 | inconclusive: 0.891 µM [inhibitor, full curve, poor fit] |  |
| Cc1cccc(NC(=O)CSc2nc3ccccc3o2)c1 |  | inactive: 2.9% |
| CC1(C)C(=O)C2(CCCCC2)C(=O)OC1c1cccn1-c1ccc([N+](=O)[O-])cc1 (stereo not given) |  | inactive: 4.37% |
| Cc1cnc(NC(=O)COc2cccc3c2OC(C)(C)C3)s1 | active: 0.708 µM |  |
| CCc1cc(C(=O)OC)c(NC(=O)c2cc(Br)cs2)s1 |  | inactive: -10.9% |
| Clc1cccc(CSc2nnc(C3CCNCC3)o2)c1 |  | inactive: 18.5% [at 46.1 µM] |
| CCN(CCCNC(=O)Cn1ncc2c([nH]c3ccc(C)cc32)c1=O)Cc1ccccc1 | inconclusive: 14.1 µM [inhibitor, partial curve, poor fit] |  |
| CC1OC(OC2C(O)CC(OC3C(O)CC(OC4CCC5(C)C(CCC6C5CCC5(C)C(C7=CC(=O)OC7)C(O)CC65O)C4)OC3C)OC2C)CC(O)C1O (stereo not given) | active: 0.316 µM |  |
